The other results are listed elsewhere or left out.
Columns and labels:
Assay in all cases: log2 fold change, soluble protein after heating vs DMSO (PISA); higher = thermal stabilisation; K562 lysate, 10 uM; active = over 0.2 and 3.5 SD of the protein, either way, in both replicates (recomputed)
erlotinib = compound: C#Cc1cccc(Nc2ncnc3cc(OCCOC)c(OCCOC)cc23)c1 [erlotinib]
Method in brief: (§1)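 Quantification was by TMTpro 16plex LC-MS/MS with equalised channel sums, applied to the supernatant after 21,000xg for 90 min. Samples were crude K562 extract at 1 mg/mL protein in PBS pH 7.4 with 1 mM MgCl2, treated with 10 μM compound for 30 min, heated for 3 min across 48°C-58°C, pooled and brought to 0.5% NP-40 at 4°C. Values are log-two fold changes in thermal stability relative to solvent controls, from duplicates.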

The chains behind the UniProt entries cited, without tags or fusion partners. Where a name states a change or a piece, a line headed by the entry shows the natural chain unless it says otherwise.
UniProt Q15517: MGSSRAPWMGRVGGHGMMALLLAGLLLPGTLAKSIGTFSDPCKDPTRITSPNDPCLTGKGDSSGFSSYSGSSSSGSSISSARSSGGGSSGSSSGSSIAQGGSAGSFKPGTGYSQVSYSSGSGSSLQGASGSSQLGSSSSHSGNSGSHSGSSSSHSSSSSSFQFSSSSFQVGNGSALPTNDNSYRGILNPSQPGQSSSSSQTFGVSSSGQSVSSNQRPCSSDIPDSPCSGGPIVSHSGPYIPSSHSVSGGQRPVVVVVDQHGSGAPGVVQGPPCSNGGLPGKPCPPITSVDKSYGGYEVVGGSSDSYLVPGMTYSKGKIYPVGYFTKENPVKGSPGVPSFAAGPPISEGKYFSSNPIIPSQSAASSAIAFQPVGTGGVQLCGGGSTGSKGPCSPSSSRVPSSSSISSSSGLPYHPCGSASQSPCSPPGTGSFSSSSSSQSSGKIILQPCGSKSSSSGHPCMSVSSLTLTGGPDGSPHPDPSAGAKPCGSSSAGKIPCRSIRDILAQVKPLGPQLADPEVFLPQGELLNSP
UniProt Q71F23: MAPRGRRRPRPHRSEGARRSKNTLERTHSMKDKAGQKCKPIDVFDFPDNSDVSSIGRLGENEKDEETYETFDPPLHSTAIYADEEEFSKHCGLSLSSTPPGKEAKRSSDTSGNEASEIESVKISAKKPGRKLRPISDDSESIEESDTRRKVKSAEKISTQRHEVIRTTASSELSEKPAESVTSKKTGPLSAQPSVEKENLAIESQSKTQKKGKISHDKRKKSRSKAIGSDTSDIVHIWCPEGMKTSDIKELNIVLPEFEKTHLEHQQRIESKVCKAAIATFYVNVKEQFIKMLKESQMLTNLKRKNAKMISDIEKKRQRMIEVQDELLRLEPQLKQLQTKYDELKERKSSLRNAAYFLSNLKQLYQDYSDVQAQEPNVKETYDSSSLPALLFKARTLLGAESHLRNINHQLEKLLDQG
UniProt Q9Y232: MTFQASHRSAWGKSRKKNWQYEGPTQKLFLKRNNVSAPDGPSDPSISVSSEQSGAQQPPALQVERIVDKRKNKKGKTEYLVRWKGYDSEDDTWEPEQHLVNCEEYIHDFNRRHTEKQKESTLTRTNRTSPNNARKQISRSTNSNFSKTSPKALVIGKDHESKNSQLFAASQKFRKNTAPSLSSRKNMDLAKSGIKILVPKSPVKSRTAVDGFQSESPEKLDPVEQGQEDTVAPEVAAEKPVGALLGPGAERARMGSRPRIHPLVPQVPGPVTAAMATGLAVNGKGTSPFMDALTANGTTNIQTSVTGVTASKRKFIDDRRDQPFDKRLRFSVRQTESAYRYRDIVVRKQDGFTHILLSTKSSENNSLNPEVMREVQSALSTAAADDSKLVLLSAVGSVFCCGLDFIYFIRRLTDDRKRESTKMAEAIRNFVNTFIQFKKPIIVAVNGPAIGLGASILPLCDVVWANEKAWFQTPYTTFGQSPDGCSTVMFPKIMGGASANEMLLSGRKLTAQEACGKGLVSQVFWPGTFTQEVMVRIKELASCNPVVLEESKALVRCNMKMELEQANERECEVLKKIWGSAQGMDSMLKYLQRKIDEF
UniProt Q9H3R5: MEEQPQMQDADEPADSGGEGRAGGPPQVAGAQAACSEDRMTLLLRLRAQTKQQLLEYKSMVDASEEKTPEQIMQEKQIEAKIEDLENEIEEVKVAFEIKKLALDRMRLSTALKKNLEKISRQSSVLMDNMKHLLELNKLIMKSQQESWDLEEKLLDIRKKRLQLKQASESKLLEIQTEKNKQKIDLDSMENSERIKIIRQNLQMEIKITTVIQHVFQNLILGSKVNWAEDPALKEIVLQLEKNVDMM
UniProt P30305: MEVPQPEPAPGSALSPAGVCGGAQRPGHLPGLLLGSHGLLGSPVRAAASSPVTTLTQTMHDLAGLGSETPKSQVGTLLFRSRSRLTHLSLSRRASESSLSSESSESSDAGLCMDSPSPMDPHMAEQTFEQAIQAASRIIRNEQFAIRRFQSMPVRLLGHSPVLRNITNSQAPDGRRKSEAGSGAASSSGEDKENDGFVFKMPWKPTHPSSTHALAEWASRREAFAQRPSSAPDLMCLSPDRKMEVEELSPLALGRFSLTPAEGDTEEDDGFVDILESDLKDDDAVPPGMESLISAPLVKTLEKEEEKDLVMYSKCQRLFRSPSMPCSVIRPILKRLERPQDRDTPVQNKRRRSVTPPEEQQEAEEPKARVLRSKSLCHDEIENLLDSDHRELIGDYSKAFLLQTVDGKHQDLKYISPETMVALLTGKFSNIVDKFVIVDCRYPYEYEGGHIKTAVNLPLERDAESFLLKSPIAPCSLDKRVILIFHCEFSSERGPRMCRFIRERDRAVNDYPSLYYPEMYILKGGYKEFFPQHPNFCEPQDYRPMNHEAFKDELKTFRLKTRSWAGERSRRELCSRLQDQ
UniProt Q9UHN6: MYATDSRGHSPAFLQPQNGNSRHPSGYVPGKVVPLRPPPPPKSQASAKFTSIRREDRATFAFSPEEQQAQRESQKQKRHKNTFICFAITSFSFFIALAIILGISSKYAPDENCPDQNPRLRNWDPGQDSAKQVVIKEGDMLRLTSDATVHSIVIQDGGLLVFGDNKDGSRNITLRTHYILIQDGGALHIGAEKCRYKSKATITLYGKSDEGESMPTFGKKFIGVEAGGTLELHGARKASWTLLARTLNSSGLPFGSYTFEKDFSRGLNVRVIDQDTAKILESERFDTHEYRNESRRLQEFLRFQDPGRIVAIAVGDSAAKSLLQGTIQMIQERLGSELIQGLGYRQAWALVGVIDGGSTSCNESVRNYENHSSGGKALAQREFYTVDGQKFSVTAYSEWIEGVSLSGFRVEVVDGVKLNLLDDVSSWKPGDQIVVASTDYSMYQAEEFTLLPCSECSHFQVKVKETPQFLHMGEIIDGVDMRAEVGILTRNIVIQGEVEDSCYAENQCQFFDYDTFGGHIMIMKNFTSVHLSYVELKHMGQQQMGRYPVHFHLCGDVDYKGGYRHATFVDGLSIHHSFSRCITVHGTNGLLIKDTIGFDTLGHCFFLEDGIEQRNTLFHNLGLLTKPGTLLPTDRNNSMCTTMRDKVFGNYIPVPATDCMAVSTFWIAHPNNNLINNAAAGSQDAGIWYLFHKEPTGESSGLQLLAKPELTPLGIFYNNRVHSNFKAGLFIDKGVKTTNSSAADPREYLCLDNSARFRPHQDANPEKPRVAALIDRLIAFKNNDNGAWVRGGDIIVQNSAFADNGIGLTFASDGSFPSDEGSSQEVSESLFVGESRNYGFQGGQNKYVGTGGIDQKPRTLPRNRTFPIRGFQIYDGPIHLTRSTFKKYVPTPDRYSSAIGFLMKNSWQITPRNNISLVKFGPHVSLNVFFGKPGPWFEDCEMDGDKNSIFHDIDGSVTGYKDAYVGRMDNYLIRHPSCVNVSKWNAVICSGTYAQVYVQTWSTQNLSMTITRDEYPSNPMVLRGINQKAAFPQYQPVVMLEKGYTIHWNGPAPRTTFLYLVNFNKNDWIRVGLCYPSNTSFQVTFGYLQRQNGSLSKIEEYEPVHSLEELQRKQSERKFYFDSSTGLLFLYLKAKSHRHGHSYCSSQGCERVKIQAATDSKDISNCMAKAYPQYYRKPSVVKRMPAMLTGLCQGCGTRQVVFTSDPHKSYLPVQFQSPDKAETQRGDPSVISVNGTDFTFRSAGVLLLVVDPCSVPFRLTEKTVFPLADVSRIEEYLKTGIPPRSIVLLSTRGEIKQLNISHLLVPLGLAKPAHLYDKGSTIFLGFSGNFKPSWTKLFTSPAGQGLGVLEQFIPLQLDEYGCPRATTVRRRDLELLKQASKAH
UniProt Q99459: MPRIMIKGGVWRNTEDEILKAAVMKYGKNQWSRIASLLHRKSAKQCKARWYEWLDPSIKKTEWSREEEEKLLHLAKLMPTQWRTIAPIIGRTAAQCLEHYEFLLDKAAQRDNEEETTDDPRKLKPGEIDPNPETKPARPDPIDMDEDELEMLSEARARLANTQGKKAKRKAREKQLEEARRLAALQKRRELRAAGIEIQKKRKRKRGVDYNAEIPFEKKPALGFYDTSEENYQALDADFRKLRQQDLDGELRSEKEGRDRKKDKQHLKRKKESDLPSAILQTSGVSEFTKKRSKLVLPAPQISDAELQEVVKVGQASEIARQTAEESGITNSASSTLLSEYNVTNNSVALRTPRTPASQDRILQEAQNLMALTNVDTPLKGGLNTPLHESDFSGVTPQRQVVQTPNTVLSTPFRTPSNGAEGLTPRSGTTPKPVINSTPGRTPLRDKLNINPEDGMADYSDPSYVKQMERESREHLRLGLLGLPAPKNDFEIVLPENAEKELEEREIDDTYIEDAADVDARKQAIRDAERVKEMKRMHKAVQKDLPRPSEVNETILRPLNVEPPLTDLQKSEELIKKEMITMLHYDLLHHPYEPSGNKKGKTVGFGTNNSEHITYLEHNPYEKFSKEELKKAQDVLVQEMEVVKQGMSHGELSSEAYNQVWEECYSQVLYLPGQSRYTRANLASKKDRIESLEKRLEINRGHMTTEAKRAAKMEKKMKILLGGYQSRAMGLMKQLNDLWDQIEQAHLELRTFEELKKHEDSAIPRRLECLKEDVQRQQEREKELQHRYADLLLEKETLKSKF
UniProt Q7L3B6: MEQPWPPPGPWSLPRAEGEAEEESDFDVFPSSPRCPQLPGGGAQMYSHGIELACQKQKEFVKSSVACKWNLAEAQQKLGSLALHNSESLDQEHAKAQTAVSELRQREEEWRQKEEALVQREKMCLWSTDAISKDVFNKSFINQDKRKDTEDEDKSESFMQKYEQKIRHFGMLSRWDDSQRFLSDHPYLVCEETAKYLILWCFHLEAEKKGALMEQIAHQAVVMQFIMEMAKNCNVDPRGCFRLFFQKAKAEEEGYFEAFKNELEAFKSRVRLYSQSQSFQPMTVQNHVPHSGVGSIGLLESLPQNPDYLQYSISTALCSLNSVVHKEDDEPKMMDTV
UniProt Q711Q0: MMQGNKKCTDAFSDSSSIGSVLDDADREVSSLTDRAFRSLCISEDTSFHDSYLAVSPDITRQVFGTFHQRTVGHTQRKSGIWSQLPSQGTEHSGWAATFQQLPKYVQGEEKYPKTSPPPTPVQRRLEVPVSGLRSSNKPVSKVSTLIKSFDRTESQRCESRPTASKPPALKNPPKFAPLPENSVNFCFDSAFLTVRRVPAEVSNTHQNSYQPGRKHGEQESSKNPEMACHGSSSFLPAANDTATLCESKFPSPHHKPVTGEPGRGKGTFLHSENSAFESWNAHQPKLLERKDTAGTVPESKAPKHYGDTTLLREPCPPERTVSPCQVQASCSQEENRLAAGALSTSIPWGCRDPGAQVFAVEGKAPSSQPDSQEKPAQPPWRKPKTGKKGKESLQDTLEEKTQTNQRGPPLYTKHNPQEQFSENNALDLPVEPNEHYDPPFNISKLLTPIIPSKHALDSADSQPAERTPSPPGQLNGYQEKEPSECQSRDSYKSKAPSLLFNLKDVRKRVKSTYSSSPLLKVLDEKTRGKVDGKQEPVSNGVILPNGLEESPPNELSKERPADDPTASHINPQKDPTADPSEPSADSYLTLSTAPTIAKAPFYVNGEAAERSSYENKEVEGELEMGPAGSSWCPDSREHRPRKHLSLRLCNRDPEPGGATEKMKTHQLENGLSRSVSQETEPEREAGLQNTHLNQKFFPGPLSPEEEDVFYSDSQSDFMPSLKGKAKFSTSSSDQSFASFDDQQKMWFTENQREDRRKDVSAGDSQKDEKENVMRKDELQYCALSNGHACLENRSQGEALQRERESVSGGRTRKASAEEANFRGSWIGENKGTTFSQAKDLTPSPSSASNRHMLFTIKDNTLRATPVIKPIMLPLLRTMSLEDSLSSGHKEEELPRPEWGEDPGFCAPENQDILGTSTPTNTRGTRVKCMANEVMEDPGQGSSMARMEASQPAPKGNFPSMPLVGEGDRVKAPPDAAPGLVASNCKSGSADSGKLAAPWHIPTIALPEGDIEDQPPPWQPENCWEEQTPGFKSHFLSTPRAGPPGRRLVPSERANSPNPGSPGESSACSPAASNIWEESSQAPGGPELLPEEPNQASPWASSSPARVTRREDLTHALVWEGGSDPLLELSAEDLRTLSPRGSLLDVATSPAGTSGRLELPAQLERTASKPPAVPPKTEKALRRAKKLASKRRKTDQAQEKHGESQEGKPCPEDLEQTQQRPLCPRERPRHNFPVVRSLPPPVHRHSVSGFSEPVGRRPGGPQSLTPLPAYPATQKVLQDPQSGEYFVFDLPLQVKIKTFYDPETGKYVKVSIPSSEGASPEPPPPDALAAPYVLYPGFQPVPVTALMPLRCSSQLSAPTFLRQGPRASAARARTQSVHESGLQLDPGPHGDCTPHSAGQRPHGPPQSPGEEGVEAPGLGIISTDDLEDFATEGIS
UniProt Q9UKY7: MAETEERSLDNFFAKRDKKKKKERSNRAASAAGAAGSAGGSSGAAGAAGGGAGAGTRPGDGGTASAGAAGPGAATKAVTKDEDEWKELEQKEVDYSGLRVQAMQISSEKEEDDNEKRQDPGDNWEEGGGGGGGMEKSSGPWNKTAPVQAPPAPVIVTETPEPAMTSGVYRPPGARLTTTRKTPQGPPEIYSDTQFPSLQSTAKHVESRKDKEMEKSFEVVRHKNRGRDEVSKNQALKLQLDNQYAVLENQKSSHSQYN

[1] = compound: C/C(=N\NC(=O)C1=CC(=CC=C1)S(=O)(=O)N2CCOCC2)/C3=C(C=CC(=C3)Cl)O
Method in brief: as §1

[2] = compound: C1=CC(=CC=C1C2=NC3=C(N2)C=C(C=C3)C(=O)N)OC4=CC=C(C=C4)Cl
Method in brief: as §1

[3] = compound: C1=CC2=C(C=CC(=C2)/C=C\3/C(=O)NC(=NCC4=CC=CS4)S3)N=C1
Method in brief: as §1

[4] = compound: C1=CC2=NC=CN=C2C=C1/C=C/3\C(=O)NC(=O)S3
Method in brief: as §1

[5] = compound: C1=CC=C(C=C1)C2=NC(=C(N2)C3=CC=NC=C3)C4=CC(=C(C=C4)Cl)O
Method in brief: as §1

[6] = compound: C1=CC=C2C(=C1)C3=NNC4=CC=CC(=C43)C2=O
Method in brief: as §1

[7] = compound: C1CCN(C1)C(=O)NC2=CC=CC(=C2)NC3=NC=C(C(=N3)NCCC4=CN=CN4)Br
Method in brief: as §1

[8] = compound: C1CN(CCC1(CC2=CC=C(C=C2)Cl)N)C3=NC=NC4=C3C=CN4
Method in brief: as §1

IRAK-1-4 Inhibitor I = compound: C1COCCN1CCN2C3=CC=CC=C3N=C2NC(=O)C4=CC(=CC=C4)[N+](=O)[O-] [IRAK-1-4 Inhibitor I]
Method in brief: as §1

ibrutinib = compound: C=CC(=O)N1CCC[C@@H](n2nc(-c3ccc(Oc4ccccc4)cc3)c3c(N)ncnc32)C1 [ibrutinib]
Method in brief: as §1

[9] = compound: CC(=O)c1cnc2ccc(-c3cc(Cl)c(O)c(Cl)c3)nc2c1N[C@H]1CC[C@H](CN(C)C)CC1
Method in brief: as §1

ralimetinib = compound: CC(C)(C)Cn1c(N)nc2ccc(-c3[nH]c(C(C)(C)C)nc3-c3ccc(F)cc3)nc21 [ralimetinib]
Method in brief: as §1

[10] = compound: CC(C)(O)CC(=O)NCCn1ccc2ncnc(Nc3ccc(Oc4cccc(C(F)(F)F)c4)c(Cl)c3)c21
Method in brief: as §1

[11] = compound: CC(C)C1=C2N=C(C=C(N2N=C1)NCC3=CC=CC=C3)NCCCCCCN
Method in brief: as §1

[12] = compound: CC1=C(C(CC(=O)N1)C2=CC=C(C=C2)C(F)(F)F)C(=O)NC3=C(C=C4C(=C3)C=NN4)F
Method in brief: as §1

[13] = compound: CC1=C(C2=C(C=C1)C(=O)C3=CC=CC=C3N2CCCN)C
Method in brief: as §1

[14] = compound: CC1=C(C=C(C=C1)NC(=O)C2=CC(=CC=C2)C(C)(C)C#N)NC3=CC4=C(C=C3)N=CN(C4=O)C
Method in brief: as §1

[15] = compound: CC1=C(C=C(C=C1)NC(=O)C2=CC(=CC=C2)N(C)C)NC(=O)C3=CC=C(C=C3)O
Method in brief: as §1

[16] = compound: CC1=CC=C(C=C1)SC2=C3C=C(SC3=CN=C2)C(=O)N
Method in brief: as §1

Row | Target | log2 fold change (erlotinib) | log2 fold change [1] | log2 fold change [2] | log2 fold change [3] | log2 fold change [4] | log2 fold change [5] | log2 fold change [6] | log2 fold change [7] | log2 fold change [8] | log2 fold change (IRAK-1-4 Inhibitor I) | log2 fold change (ibrutinib) | log2 fold change [9] | log2 fold change (ralimetinib) | log2 fold change [10] | log2 fold change [11] | log2 fold change [12] | log2 fold change [13] | log2 fold change [14] | log2 fold change [15] | log2 fold change [16]
1 | CHAC2 (UniProt Q8WUX2) | inactive: 0.019 | inactive: 0.097 | inactive: 0.049 | inactive: 0.022 | inactive: -0.023 | inactive: 0.055 | inactive: -0.012 | inactive: 0.032 | inactive: 0.044 | inactive: -0.038 | inactive: -0.064 | inactive: -0.014 | inactive: -0.01 | inactive: 0.043 | inactive: -0.118 | inactive: -0.026 | inactive: -0.048 | inactive: -0.016 | inactive: 0.017 | inactive: -0.031
2 | CDSN (UniProt Q15517) | inactive: 0.315 | inactive: -0.226 | inactive: -0.358 | inactive: 0.012 | inactive: 0.567 | inactive: -0.081 | inactive: 0.018 | inactive: -0.313 | inactive: -0.354 | inactive: 0.248 | inactive: -0.156 | inactive: -0.141 | inactive: -0.051 | inactive: 0.692 | inactive: 0.012 | inactive: 0.369 | inactive: 0.128 | inactive: -0.046 | inactive: 0.044 | inactive: -0.173
3 | CENPU (UniProt Q71F23) | inactive: 0.012 | inactive: 0.009 | inactive: 0.016 | inactive: 0.098 | inactive: -0.038 | inactive: -0.029 | inactive: 0.063 | inactive: -0.009 | inactive: -0.075 | inactive: -0.013 | inactive: 0.042 | inactive: 0.127 | inactive: -0.003 | inactive: -0.009 | inactive: -0.005 | inactive: -0.021 | inactive: -0.021 | inactive: -0.042 | inactive: 0.049 | inactive: 0.085
4 | CDC37 (UniProt Q16543) | inactive: -0.004 | inactive: 0.027 | inactive: 0.015 | inactive: -0.025 | inactive: -0.008 | inactive: 0.032 | inactive: 0.013 | inactive: 0.025 | inactive: -0.004 | inactive: 0.011 | inactive: -0.008 | inactive: -0.002 | inactive: -0.019 | inactive: 0.002 | inactive: 0.008 | inactive: -0.022 | inactive: 0.014 | inactive: -0.029 | inactive: 0.006 | inactive: -0.012
5 | CDYL (UniProt Q9Y232) | inactive: -0.033 | inactive: -0.06 | inactive: 0.095 | inactive: 0.099 | inactive: -0.001 | inactive: 0.01 | inactive: -0.01 | inactive: 0.011 | inactive: 0.029 | inactive: 0 | inactive: 0.022 | inactive: 0.026 | inactive: -0.032 | inactive: -0.023 | inactive: 0.02 | inactive: 0.113 | inactive: -0.046 | inactive: -0.015 | inactive: -0.017 | inactive: -0.03
6 | CENPH (UniProt Q9H3R5) | inactive: 0.018 | inactive: -0.001 | inactive: 0.021 | inactive: 0.042 | inactive: -0.037 | inactive: 0.017 | inactive: -0.039 | inactive: 0.001 | inactive: -0.019 | inactive: 0.046 | inactive: -0.025 | inactive: 0.016 | inactive: 0.005 | inactive: -0.037 | inactive: 0 | inactive: -0.053 | inactive: -0.008 | inactive: -0.021 | inactive: 0.022 | inactive: 0.011
7 | CELF2 isoform 3 (UniProt O95319) | inactive: -0.111 | inactive: -0.041 | inactive: -0.041 | inactive: -0.004 | inactive: -0.024 | inactive: 0.007 | inactive: -0.012 | inactive: -0.053 | inactive: 0.041 | inactive: -0.029 | inactive: -0.016 | inactive: 0.062 | inactive: -0.019 | inactive: -0.015 | inactive: 0.001 | inactive: 0.025 | inactive: 0.01 | active: -0.413 | inactive: 0.018 | inactive: 0.014
8 | CDC25B (UniProt P30305) | inactive: 0.016 | inactive: 0.043 | inactive: 0.024 | inactive: 0.015 | inactive: -0.03 | inactive: 0.029 | inactive: -0.018 | inactive: -0.016 | inactive: -0.015 | inactive: 0.033 | inactive: 0.002 | inactive: 0.108 | inactive: 0.075 | inactive: -0.011 | inactive: -0.074 | inactive: -0.028 | inactive: -0.044 | inactive: 0.008 | inactive: -0.039 | inactive: 0.065
9 | CEMIP2 (UniProt Q9UHN6) | inactive: -0.027 | inactive: -0.01 | inactive: -0.051 | inactive: -0.039 | inactive: 0.064 | inactive: 0.002 | inactive: 0.059 | inactive: -0.056 | inactive: -0.002 | inactive: 0.019 | inactive: -0.043 | inactive: 0.028 | inactive: -0.015 | inactive: 0.053 | inactive: -0.071 | – | inactive: 0.005 | inactive: 0.025 | inactive: -0.066 | inactive: 0.028
10 | CDC5L (UniProt Q99459) | inactive: -0.002 | inactive: -0.013 | inactive: -0.034 | inactive: -0.015 | inactive: -0.001 | inactive: 0.023 | inactive: 0.033 | inactive: 0.012 | inactive: -0.03 | inactive: -0.012 | inactive: 0.03 | inactive: 0.001 | inactive: 0.057 | inactive: 0.037 | inactive: 0.015 | inactive: 0.003 | inactive: -0.012 | inactive: 0.02 | inactive: 0.013 | inactive: 0.031
11 | CDC37L1 (UniProt Q7L3B6) | inactive: 0.008 | inactive: 0.034 | inactive: -0.006 | inactive: 0.032 | inactive: 0.027 | inactive: -0.014 | inactive: -0.042 | inactive: -0.013 | inactive: -0.008 | inactive: -0.008 | inactive: 0.077 | inactive: -0.012 | inactive: -0.023 | inactive: -0.033 | inactive: -0.001 | inactive: 0.058 | inactive: 0.025 | inactive: -0.004 | inactive: 0.009 | inactive: -0.005
12 | CEFIP (UniProt Q711Q0) | inactive: 0 | inactive: -0.016 | inactive: -0.06 | inactive: -0.118 | inactive: 0.048 | inactive: 0.168 | inactive: 0.048 | inactive: -0.066 | inactive: 0.071 | inactive: 0.073 | inactive: -0.052 | inactive: 0.138 | inactive: 0.018 | inactive: -0.187 | inactive: -0.098 | inactive: -0.14 | – | inactive: -0.035 | inactive: 0.046 | inactive: -0.065
13 | CDC42BPB (UniProt Q9Y5S2) | inactive: 0.001 | inactive: -0.016 | inactive: 0.044 | inactive: -0.14 | inactive: 0.001 | inactive: 0.013 | inactive: -0.005 | inactive: -0.009 | inactive: -0.089 | inactive: 0.075 | inactive: 0 | inactive: -0.025 | inactive: -0.05 | inactive: -0.066 | inactive: 0.08 | inactive: -0.065 | inactive: -0.061 | inactive: 0.205 | inactive: -0.005 | inactive: 0.008
14 | CENPJ (UniProt Q9HC77) | inactive: 0.013 | inactive: -0.031 | inactive: 0.105 | inactive: -0.004 | inactive: -0.046 | inactive: -0.003 | inactive: 0.035 | inactive: -0.254 | inactive: 0.136 | inactive: -0.011 | inactive: 0.007 | inactive: 0.025 | inactive: 0.008 | inactive: -0.05 | inactive: 0.025 | – | inactive: 0.032 | inactive: 0.072 | inactive: 0.009 | inactive: 0.063
15 | CDV3 (UniProt Q9UKY7) | inactive: -0.004 | inactive: 0.047 | inactive: -0.017 | inactive: -0.014 | inactive: 0.007 | inactive: 0.016 | inactive: 0.063 | inactive: 0.024 | inactive: 0.002 | inactive: -0.017 | inactive: 0.029 | inactive: 0.016 | inactive: -0.021 | inactive: -0.004 | inactive: -0.031 | inactive: -0.013 | inactive: -0.01 | inactive: -0.04 | inactive: -0.012 | inactive: -0.012
16 | CD97 (UniProt P48960) | inactive: -0.018 | inactive: 0.014 | inactive: -0.022 | inactive: -0.025 | inactive: 0.005 | inactive: -0.011 | inactive: 0.055 | inactive: -0.014 | inactive: 0.027 | inactive: 0.024 | inactive: 0.003 | inactive: 0.023 | inactive: -0.044 | inactive: -0.016 | inactive: 0.037 | inactive: 0.038 | inactive: 0.037 | inactive: -0.045 | inactive: 0.057 | inactive: -0.021

Reprinted, nos. 1–4
Row | Target | log2 fold change (erlotinib) | log2 fold change [1] | log2 fold change [2] | log2 fold change [3] | log2 fold change [4] | log2 fold change [5] | log2 fold change [6] | log2 fold change [7] | log2 fold change [8] | log2 fold change (IRAK-1-4 Inhibitor I) | log2 fold change (ibrutinib) | log2 fold change [9] | log2 fold change (ralimetinib) | log2 fold change [10] | log2 fold change [11] | log2 fold change [12] | log2 fold change [13] | log2 fold change [14] | log2 fold change [15] | log2 fold change [16]
1 | CHAC2 (UniProt Q8WUX2) | inactive: 0.019 | inactive: 0.097 | inactive: 0.049 | inactive: 0.022 | inactive: -0.023 | inactive: 0.055 | inactive: -0.012 | inactive: 0.032 | inactive: 0.044 | inactive: -0.038 | inactive: -0.064 | inactive: -0.014 | inactive: -0.01 | inactive: 0.043 | inactive: -0.118 | inactive: -0.026 | inactive: -0.048 | inactive: -0.016 | inactive: 0.017 | inactive: -0.031
2 | CDSN (UniProt Q15517) | inactive: 0.315 | inactive: -0.226 | inactive: -0.358 | inactive: 0.012 | inactive: 0.567 | inactive: -0.081 | inactive: 0.018 | inactive: -0.313 | inactive: -0.354 | inactive: 0.248 | inactive: -0.156 | inactive: -0.141 | inactive: -0.051 | inactive: 0.692 | inactive: 0.012 | inactive: 0.369 | inactive: 0.128 | inactive: -0.046 | inactive: 0.044 | inactive: -0.173
3 | CENPU (UniProt Q71F23) | inactive: 0.012 | inactive: 0.009 | inactive: 0.016 | inactive: 0.098 | inactive: -0.038 | inactive: -0.029 | inactive: 0.063 | inactive: -0.009 | inactive: -0.075 | inactive: -0.013 | inactive: 0.042 | inactive: 0.127 | inactive: -0.003 | inactive: -0.009 | inactive: -0.005 | inactive: -0.021 | inactive: -0.021 | inactive: -0.042 | inactive: 0.049 | inactive: 0.085
4 | CDC37 (UniProt Q16543) | inactive: -0.004 | inactive: 0.027 | inactive: 0.015 | inactive: -0.025 | inactive: -0.008 | inactive: 0.032 | inactive: 0.013 | inactive: 0.025 | inactive: -0.004 | inactive: 0.011 | inactive: -0.008 | inactive: -0.002 | inactive: -0.019 | inactive: 0.002 | inactive: 0.008 | inactive: -0.022 | inactive: 0.014 | inactive: -0.029 | inactive: 0.006 | inactive: -0.012
